Experimental data as given in paper PMC4691038.
These are yes or no findings as the source states them, for the method shown. Binding calls can cover weak binding; strength is not graded here.

Sequences of proteins named here, by UniProt entry; tags and fusion partners are left off. A change or cut given only in a name is not applied to a line headed by its entry.
UniProt Q9NZM3: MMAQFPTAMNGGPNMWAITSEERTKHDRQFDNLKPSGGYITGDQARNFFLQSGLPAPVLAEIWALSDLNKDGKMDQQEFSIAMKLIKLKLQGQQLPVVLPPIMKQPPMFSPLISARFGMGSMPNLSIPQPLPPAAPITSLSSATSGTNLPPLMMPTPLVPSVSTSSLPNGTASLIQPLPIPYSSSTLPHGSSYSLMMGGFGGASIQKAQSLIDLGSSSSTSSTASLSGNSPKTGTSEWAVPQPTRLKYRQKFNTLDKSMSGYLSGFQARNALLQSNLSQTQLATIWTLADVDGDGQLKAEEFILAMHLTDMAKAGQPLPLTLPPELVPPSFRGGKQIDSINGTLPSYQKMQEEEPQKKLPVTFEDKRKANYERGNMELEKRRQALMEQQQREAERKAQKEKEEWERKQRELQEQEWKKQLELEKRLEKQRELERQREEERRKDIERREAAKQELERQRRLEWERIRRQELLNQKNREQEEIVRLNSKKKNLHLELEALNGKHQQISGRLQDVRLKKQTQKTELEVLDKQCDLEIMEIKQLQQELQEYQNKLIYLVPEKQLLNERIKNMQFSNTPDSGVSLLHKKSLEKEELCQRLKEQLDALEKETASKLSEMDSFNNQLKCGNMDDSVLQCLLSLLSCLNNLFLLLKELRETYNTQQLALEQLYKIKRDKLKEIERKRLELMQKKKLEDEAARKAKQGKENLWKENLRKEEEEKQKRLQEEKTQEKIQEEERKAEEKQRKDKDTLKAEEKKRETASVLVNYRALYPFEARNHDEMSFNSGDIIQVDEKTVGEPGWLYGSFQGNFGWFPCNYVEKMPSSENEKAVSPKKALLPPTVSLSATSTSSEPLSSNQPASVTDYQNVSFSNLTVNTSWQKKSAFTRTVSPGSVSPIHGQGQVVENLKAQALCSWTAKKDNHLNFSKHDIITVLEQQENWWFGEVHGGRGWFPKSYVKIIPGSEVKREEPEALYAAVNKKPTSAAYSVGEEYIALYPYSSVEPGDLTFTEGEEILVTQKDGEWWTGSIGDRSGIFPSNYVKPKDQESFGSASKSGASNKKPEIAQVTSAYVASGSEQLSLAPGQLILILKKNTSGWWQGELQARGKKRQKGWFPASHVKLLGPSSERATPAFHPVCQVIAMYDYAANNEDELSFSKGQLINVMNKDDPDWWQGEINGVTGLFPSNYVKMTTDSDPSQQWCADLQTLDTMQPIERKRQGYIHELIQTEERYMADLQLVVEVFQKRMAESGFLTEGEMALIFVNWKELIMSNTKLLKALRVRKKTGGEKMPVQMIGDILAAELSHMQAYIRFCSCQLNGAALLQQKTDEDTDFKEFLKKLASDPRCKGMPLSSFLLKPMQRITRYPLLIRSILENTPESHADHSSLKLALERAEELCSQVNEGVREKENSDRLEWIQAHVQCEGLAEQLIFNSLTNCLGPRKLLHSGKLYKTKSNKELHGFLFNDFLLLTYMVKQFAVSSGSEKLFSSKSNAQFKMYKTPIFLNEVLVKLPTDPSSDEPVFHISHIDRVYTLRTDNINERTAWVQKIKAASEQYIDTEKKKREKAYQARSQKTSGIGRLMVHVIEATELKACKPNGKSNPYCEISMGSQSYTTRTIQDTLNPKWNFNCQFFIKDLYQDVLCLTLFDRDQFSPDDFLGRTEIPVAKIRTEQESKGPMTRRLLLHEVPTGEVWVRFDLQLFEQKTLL

Biological target: ITSN2L coiled-coil domain expressed from pDBLeu-ITSN2L-CC (human) (UniProt Q9NZM3)
Test: two-hybrid; directed test in yeast MaV203: pDBLeu baits with pPC86 preys, Beta-Gal assay (blue colonies)

binding: binds
B1: RABEP1 (rabaptin-5) expressed from pPC86-RABEP1 (protein, UniProt Q15276 1-862)
chain: MAQPGPASQPDVSLQQRVAELEKINAEFLRAQQQLEQEFNQKRAKFKELYLAKEEDLKRQNAVLQAAQDDLGHLRTQLWEAQAEMENIKAIATVSENTKQEAIDEVKRQWREEVASLQAVMKETVRDYEHQFHLRLEQERTQWAQYRESAEREIADLRRRLSEGQEEENLENEMKKAQEDAEKLRSVVMPMEKEIAALKDKLTEAEDKIKELEASKVKELNHYLEAEKSCRTDLEMYVAVLNTQKSVLQEDAEKLRKELHEVCHLLEQERQQHNQLKHTWQKANDQFLESQRLLMRDMQRMEIVLTSEQLRQVEELKKKDQEDDEQQRLNKRKDHKKADVEEEIKIPVVCALTQEESSAQLSNEEEHLDSTRGSVHSLDAGLLLPSGDPFSKSDNDMFKDGLRRAQSTDSLGTSGSLQSKALGYNYKAKSAGNLDESDFGPLVGADSVSENFDTASLGSLQMPSGFMLTKDQERAIKAMTPEQEETASLLSSVTQGMESAYVSPSGYRLVSETEWNLLQKEVHNAGNKLGRRCDMCSNYEKQLQGIQIQEAETRDQVKKLQLMLRQANDQLEKTMKDKQELEDFIKQSSEDSSHQISALVLRAQASEILLEELQQGLSQAKRDVQEQMAVLMQSREQVSEELVRLQKDNDSLQGKHSLHVSLQQAEDFILPDTTEALRELVLKYREDIINVRTAADHVEEKLKAEILFLKEQIQAEQCLKENLEETLQLEIENCKEEIASISSLKAELERIKVEKGQLESTLREKSQQLESLQEIKISLEEQLKKETAAKATVEQLMFEEKNKAQRLQTELDVSEQVQRDFVKLSQTLQVQLERIRQADSLERIRAILNDTKLTDINQLPET
